Results taken from publication PMC11796366, “The Campylobacter jejuni BumS sensor phosphatase detects the branched short-chain fatty acids isobutyrate and isovalerate as direct cues for signal transduction” (mBio, 2024).

Biological target: T1, BumS (WT BumS-Myc-6XHis) (Campylobacter jejuni, UniProt Z9AJU0DEG1)
T1 construct: gene CJJ81176_1484; second to penultimate codon, C-terminal Myc-6XHis tag kept (pBAD/Myc-HisA, pNR251), expressed in E. coli TOP10; cytoplasmic, N-terminal PAS domain (about residues 1-120)
T1 sequence (Z9AJU0DEG1 2-403): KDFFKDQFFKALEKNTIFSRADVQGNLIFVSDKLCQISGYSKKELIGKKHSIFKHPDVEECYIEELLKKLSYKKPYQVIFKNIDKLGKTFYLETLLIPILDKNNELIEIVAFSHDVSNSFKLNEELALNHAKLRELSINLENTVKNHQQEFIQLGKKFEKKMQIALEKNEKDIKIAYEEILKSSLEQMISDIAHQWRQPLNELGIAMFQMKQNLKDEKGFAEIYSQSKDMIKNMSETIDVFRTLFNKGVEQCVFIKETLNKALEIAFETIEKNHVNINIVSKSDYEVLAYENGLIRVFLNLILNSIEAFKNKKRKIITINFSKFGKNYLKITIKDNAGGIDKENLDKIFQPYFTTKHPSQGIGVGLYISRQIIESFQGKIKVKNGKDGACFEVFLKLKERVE
Assay: CD thermal melt at […] nm
Format: binding
Details: […]; […] HEPES, […] NaSO4, […] glycerol; […]-95 °C

CC(C)CC(=O)O [isovalerate]
Tm,app: isobutyrate and isovalerate had a net destabilizing effect on the thermostability of BumS
